# Results taken from article PMC10845952.
# T1: MecA with C-terminal tandem affinity purification (TAP) tag (3x HA + FLAG) (S. mutans) (UniProt Q8DW33)
# T1 sequence: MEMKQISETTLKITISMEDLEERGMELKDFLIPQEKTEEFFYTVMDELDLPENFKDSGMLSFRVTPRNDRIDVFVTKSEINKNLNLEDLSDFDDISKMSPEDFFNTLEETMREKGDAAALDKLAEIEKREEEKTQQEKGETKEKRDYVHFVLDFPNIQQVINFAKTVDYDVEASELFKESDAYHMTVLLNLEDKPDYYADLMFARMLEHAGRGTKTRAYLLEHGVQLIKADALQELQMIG
# B1: 2-isopropylmalate synthase, LeuA (protein, UniProt Q8DTG2 1-521)
# chain: MRKVEFLDTTLRDGEQTPGVNFSIKEKVAIAKQLEKWGISDIEAGFPAASPDSFEAVKQIAAAMTTTAVSGLARSVKSDIDACYEALKDAKFPQCHVFIATSPIHREFKLKKSKEEILEVIKEHVTYARSKFDVIEFSPEDATRTELDFLLQVVQTAVDAGATYINIPDTVGFTTPVEFGHIFKYLIENVKSDRDIIFSPHCHDDLGMATANTLAAIKNGAGRVEGTVNGIGERAGNVALEEVAVALNIREDYYDATSAIVLDETVTTSEMVSRFSGIPIPKNKAVVGGNAFSHESGIHQDGFLKNPLTYEIITPELVGVKKSSLPLGKLSGRHAFIEKLKELKLDFEEGEVAPLFAKFKSLADKKHDITDADIRALVAGTSVENPEGFHFKDLRLTSNDDDTITAQVIMVNEGEEEVTIIANGKGSVEAIFNAVDKFFNQTVKLDSYNIEAVTDGIDAQARVLVSVENIDTDTIFNASGLDFDVLKASAIAYINANTFVQKENAGEIGHKVSERDYPSND
# B2: Acetolactate synthase large subunit, IlvB (protein, UniProt Q8DW45 1-567)
# chain: MEKIYLENPKSGSEILLDTLANLGVKTIFGYPGGAVLPLYDAIYKQDNIRHILARHEQGAVHEAEGFAKSTGKLGVAIVTSGPGATNAITGIADAMSDSVPMLVFTGQVATPGIGKDAFQEADIIGITMPITKYNYQIRETADIPRIVTEAVHIATTGRPGPVVIDLPKDVSEKRVSSFNETTIKIPGYQPTIEPNNLQVKKILSQLKKAKKPLILAGGGVNYAGASAELIAFAERYKIPVVSTLLSLGVMPIEHPLSLGMGGMHGSYASNMALTECDFLINFGSRFADRLTGNPKTFAQKAVVAHVDIDPAEIGKVVKTAIPVVGDAKKTLKQLLESDKVSTRHREWTDKVLQDKAKAPFSYKFDQEVIKPQHAIETIGKLTKGDAIIITDVGQHQMWAAQFYPYKNERQIITSGGLGTMGFGIPAAVGAKLANPGKEVVLFVGDGGFQMTNQELAILNGYGVPIKLVLINNHSLGMVRQWQESFYDERRSESTFDDEPNFQLLAESYGISHYKLDNPLTLEKDLEVILENKPMLIEVDISNREHVYPMVPSGKSNAEMLGVTFNA
# B3: DNA topoisomerase IV subunit A, ParC (protein, UniProt Q8DTW6 1-818)
# chain: MSNIQIMSLEDIMGERFGRYSKYIIQERALPDIRDGLKPVQRRILYSMNKDGNTYDKGYRKSAKSVGNVMGNFHPHGDSSIYDAMVRMSQDWKNRETLIEMHGNNGSMDGDPPAAMRYTEARLSEIADYLLQDIDKNTVAWAWNFDDTEKEPTVLPAAFPNLLVNGATGISAGYATDIPPHNLAEVIDTVVYLIDHPSAKLDKLMEFLPGPDFPTGAIIQGKDEIRKAYETGKGRVVVRSRTEIENLKGGKKQIVATEIPYEVNKAALVKKIDDVRLNNKVPGIAEVRDESDREGLRIAIELKKDADEQTILNYLFKYTDLQINYNFNMVAIDNYTPRQVGIIPMLTSYIAHRKDIIVARSKFDKEKAEKRLHIVEGLIRVISILDEVIALIRASENKADAKENLKISYDFSEEQAEAIVTLQLYRLTNTDIVTLENEEAELRERITTLNAIIGDERTMYNVMKRELREVKKKFGNPRLSELQAETQTIEIDTASLIVEEETYVSVTRGGYIKRTSPRSFNASTVEELGKRDDDDVIFIQNAKTTQELLIFTNLGNVIYRPIHELADIRWKEIGEHLSQNITNFATDEEILYVDLVDHFEEGTYYAATRLGQIKRFERRDLTPWRSYKSKAAKYAKLKGDDDQVIRISPIKLDDVMLITARGYALRFNIEEVPIVGPKAAGIKAINLKEGDSLATAFIANTDSIYILTQRGSLKRMTTNLIPVTSRAKRGLQVLRELKSKPHRVFAAGPVFSEAAGEIDLFTTVGEQGQEEILEIQSQSLEKYEVNLAELLLSERTSNGSFISDTISDQGVYAAKIKI
# B4: Single-stranded-DNA-specific exonuclease, RecJ (protein, UniProt Q8DT92 1-734)
# chain: MITSKYAWKINEKKPDDGFFELAKKENLNPTAAQILYERGFKTSKDIEAFLRPDLSQLHDPFLLNDMDKAVTRIRRAIETNERILIYGDYDADGMTSSSIAKEALEMLGAEVEAYLPNRFTDGYGPNLSVYKYFIEQQDISLILTVDNGIAGHDAIAYAQGQGVDVIVTDHHSMPAELPSAYAVVHPEHPDANYPFKCLAGCGVAFKLACALLESIPTEMLDLVAIGTIADMVSLTDENRVMVKYGLEILKQTERVGLQELIALAGVDFADINEETIGFKLAPQLNALGRLDDPNPAVELLTGFDDEEAKTIAAMINEKNEERKTIVQAIFEEAMTLVDENKSVQVLAKEGWHAGVLGIVAGRIMEQINQPVIVLNIENGLAKGSARSLESVNIFNALDAHRDLFMAFGGHAGAAGMTLEADKLEELSQVLNDYIQEHAIDLSQKSALVIDEELYLPELSLDTLKGLETLAPFGMNNKKPIFLLRDFTVKQVRTMGQNGAHLKLKVAQEQAVFDLLAFNYGSLVTEFQQAQHLELAVTLSVNRWNGNTSLQLMLVDARVEGIQLLDIRARNSALPDGVPFLEDQTDSKAVVLFEIPEKEEDLLALFENRDFEVIYFKNRIKHQYYLTGSGTREQFAKLYKTIYQFPEFDVRHKLKELSQFLKIPDILLVKMIQIFDELDFVSIDDGIMTVNKDAQKREISDSHIYQDLKKLVKFQELMALGTPQEIYEFLKRDR
# B5: Aspartate kinase, Akh (protein, UniProt Q8DSM8 1-452)
# chain: MKVVKFGGSSLASATQLEKVLNIIKSDEERRFVVVSAPGKRDAQDTKVTDALIRYYRSYTSDKDVTADQSWIINRYRAIIDELGLGQNILEKITKAIVDLANLPIEDNDFLYDTFLAAGEDNNAKLIAEYFRKNGLSARYIHPKKAGIIVTSEPGNARIIPSSYDKLEELRDSDEVLVIPGFFGVTIDNQICTFSRGGSDITGSIVAAGVKADLYENFTDVDGIFAAHPGVVHKPHSISELTYREMRELAYAGFSVLHDEALIPAYRGKIPLVIKNTNNPEHPGTKIVLAHTGATIPVVGIAGDDDFVSINLSKYLMNREIGFGRKILQVLEELNIRWEHIPTGIDDMSIILRGRELTPIKEQEIISQLTRKLEVDEVEIERNLSIIMIVGENMKNHIGVTAKAAEAFSKKHINLEMISQGSSEVSVMFVIKTEQEKQAVRALYQTFFMKDE
# B6: DNA primase, DnaG (protein, UniProt Q8DUS6 1-592)
# chain: MVVDKEKIKEIKDSINIVDVIGEVVSLSRSGRNYLGLCPFHKEKTPSFNVIEDRQFFHCFGCGRSGDVFKFVEDYRNISFLESVQVLAERSGINVTLQDKSQEVKKEHPHQKLFNINGDANKFYQAVLKTTKVGETARQYLYERGLTDELITYFKIGLAPNEYDYLYQAMLKKYDEDTIINSGLFNLSDSNSIYDAFRNRIMFPLTDEFGHIIGFSGRIWTEEDTSKKLAKYKNTRSTIIFNKSYELYHLDKARTAAKKEHELYLMEGFMDVIAAYRAGIPNAVASMGTALTPEHVKHLRKFTKKVILTYDGDKAGQNAIAKSLNLLSNMAVEIVRIPGQMDPDEFIKENSEEELEKLLKQARISSAEFWIEHLKPENIDNLQAEIDYVEKIAKVIAASPSITAQNTYINKVAEFLPDFDYLQVEQAVNNERLQMRSQISEQESANQQVLIDLPVTKQLTALTKAESQLFHRLLHHDYLLNEFRNRAHFKFTTPELQELYQILKTNGEINAYDLSQLSNQLQETYYRVLEENLPEEIAEDEIRQIEDQIDKCLQRQEMRKQSKAIRESSNHGDVDTAVEGLAALIAQKRNME
# B7: 50S ribosomal protein L4 (protein, UniProt Q8DS17 1-207)
# chain: MANVKLFDQTGKEAGEVTLNDAIFGIEPNESVVFDVIISQRANLRQGTHAVKNRSAVSGGGRKPWRQKGTGRARQGSIRAPQWRGGGVVFGPTPRSYGYKLPQKVRRLALKSVYSAKVADEKFVAVDALSFEAPKTKEFATVLAALNVDSKVLVILEEGNQAAELSARNLPNVKVATAATASVLDIVNSDKLLVTKEAISNIEEVLA
# Molecular target: T1, MecA with C-terminal tandem affinity purification (TAP) tag (3x HA + FLAG) (S. mutans)
# Assay: affinity purification with mass spectrometry; MecA with C-terminal TAP tag (3x HA + FLAG) as bait; S. mutans grown to mid-logarithmic phase, formaldehyde crosslinked; anti-FLAG affinity resin, then anti-HA affinity resin; LC-MS/MS; three experiments; >=2-fold enrichment of spectral counts over the untagged wild type
row,binding,Binder
1,binds,B1
2,binds,B2
3,binds,B3
4,binds,B4
5,binds,B5
6,binds,B6
7,binds,B7

# Results are given in words; binding and its absence hold for the method and conditions named. Binding seen in cells or lysates may run through a third protein. These calls come from enrichment with a bait or labelling near it, and not all partners need be listed. Where a sequence is shown, tags or fusion partners need not be part of it.
